# From US20230242610A1
# These are yes or no findings as the source states them, for the method shown. For some assays here: Binding seen in cells or lysates may run through a third protein. Some entries that bind do so weakly or less than the wild type. Tags and fused reporters may be left off the sequences shown.
# Tests used:
# HA-TMEM16A (mouse) [1] = target: T1, HA-TMEM16A (mouse) (UniProt Q8BHY3); assay: single molecule pulldown (SiMPull), HEK293T lysate on an anti-HA coverslip, TIRF
# T1 sequence (looked up): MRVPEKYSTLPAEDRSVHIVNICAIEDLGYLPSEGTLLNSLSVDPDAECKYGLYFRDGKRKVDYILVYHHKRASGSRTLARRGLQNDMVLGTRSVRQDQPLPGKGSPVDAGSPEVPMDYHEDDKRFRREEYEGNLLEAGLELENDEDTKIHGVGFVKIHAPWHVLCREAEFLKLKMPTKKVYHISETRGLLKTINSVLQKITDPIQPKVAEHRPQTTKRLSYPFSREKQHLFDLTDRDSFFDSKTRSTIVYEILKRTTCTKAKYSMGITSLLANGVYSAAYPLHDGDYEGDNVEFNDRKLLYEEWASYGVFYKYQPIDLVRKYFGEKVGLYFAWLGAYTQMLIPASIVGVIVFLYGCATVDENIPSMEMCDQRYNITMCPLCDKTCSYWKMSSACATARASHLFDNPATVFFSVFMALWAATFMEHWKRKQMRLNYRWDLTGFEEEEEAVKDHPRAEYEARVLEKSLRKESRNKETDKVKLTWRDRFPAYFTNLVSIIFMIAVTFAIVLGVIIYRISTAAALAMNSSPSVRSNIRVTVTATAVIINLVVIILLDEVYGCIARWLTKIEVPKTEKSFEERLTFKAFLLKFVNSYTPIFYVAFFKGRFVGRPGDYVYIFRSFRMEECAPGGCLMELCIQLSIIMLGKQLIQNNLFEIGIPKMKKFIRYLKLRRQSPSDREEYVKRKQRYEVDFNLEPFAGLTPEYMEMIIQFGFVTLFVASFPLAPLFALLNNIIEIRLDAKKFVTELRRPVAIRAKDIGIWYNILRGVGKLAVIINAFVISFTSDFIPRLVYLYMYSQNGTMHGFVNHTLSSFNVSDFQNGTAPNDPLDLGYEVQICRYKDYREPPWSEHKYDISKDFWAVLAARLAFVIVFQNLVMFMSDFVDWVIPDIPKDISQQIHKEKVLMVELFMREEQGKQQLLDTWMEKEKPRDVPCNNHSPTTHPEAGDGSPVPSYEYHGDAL
# HA-TMEM16A (mouse) [2] = target: T1, HA-TMEM16A (mouse); assay: single molecule pulldown (SiMPull), TIRF
substance,measurement,setting,value
KCNE1-GFP (from UniProt P15382 1-129),binding,HA-TMEM16A (mouse) [1],binds
same,binding,HA-TMEM16A (mouse) [2],binds
